Percent effect of library compounds

Amino acid sequences for entries named in this document (tags omitted). Residues count along the entry.
UniProt A4I591, 1-473: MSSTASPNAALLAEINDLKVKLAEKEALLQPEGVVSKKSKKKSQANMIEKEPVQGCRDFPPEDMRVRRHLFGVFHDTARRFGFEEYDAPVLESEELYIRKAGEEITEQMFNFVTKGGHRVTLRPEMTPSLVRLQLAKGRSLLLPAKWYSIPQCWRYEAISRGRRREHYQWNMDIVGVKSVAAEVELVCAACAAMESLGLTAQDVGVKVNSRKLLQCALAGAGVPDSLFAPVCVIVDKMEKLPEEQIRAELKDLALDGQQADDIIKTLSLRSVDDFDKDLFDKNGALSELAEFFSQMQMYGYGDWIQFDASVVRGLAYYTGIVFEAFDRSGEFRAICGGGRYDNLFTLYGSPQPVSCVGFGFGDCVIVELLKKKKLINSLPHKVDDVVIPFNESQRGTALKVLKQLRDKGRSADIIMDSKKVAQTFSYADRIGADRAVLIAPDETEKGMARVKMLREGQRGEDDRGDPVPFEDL
UniProt Q8IDJ8, 1-583: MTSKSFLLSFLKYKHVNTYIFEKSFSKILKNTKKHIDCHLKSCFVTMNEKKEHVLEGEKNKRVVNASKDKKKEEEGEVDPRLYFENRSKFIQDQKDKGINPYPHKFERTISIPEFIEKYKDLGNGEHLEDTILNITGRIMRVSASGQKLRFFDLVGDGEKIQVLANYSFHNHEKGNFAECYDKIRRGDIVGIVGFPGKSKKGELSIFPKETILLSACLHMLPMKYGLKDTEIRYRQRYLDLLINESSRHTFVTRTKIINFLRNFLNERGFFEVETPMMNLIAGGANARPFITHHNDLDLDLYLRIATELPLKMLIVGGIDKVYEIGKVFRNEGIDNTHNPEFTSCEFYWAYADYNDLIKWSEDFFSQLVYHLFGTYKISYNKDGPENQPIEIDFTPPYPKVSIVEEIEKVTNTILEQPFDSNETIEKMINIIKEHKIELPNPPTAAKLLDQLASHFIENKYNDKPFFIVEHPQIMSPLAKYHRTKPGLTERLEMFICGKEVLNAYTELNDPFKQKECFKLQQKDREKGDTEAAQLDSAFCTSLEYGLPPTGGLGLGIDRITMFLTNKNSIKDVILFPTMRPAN
UniProt Q4DA54, 1-478: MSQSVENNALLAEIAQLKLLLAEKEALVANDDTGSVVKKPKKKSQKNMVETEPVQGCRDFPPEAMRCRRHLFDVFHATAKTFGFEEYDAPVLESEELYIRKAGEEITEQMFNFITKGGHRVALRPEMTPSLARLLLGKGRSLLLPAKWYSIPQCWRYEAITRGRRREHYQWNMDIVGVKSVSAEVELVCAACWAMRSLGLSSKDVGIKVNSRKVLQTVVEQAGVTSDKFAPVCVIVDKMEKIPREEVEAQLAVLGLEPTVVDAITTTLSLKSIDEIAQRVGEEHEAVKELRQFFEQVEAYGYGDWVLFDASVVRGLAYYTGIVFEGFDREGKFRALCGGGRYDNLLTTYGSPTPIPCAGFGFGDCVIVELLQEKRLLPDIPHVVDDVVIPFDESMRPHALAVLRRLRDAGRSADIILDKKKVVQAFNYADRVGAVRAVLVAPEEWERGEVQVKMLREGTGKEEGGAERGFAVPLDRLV

Measurements from “University of Dundee, Small-Polar-MMV Screening Library” (2021), ChEMBL document CHEMBL3988442.

LiHisRS: 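Histidine-tRNA ligase, Leishmania infantum (UniProt A4I591). Enzyme assay of histidyl-tRNA synthetase; the read-out is not stated. Compounds at 30 µM. Direction is inferred from retests: higher values go with stronger inhibition. The assay is labelled LdHisRS but filed under L. infantum. Size under these conditions: about 69,000 compounds, about 410 of them at 50% or above in at least one test.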
PfKRS1: 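Enzyme assay of the cytosolic lysyl-tRNA synthetase in 384-well plates, read by luminescence. Target: Lysine-tRNA ligase, Plasmodium falciparum 3D7 (UniProt Q8IDJ8). Concentration: 30 µM. Higher reads as stronger inhibition, judged from the few compounds that gave an IC50. About 69,000 compounds were tested under these conditions; 0.071% (about 49) showed 50% or more at least once.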
TcHisRS: 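Histidine-tRNA ligase, Trypanosoma cruzi CL Brener (UniProt Q4DA54). Enzyme assay of histidyl-tRNA synthetase; the read-out is not stated. Concentration: 30 µM. Higher reads as stronger inhibition (inferred: compounds with an IC50 in retests scored well above the rest). About 69,000 compounds were tested under these conditions; 0.045% (about 31) showed 50% or more at least once.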

Each number is a percent effect as filed.
How 0% and 100% were set is not recorded. Most values in the screen are low, and negative values occur.
This is an unselected part of the compounds tested.

SMILES	LiHisRS	PfKRS1	TcHisRS
Cc1ncsc1CN1CCOC(C)(C(=O)N2CCOCC2)C1 (configuration not stated)	11.27	-0.2034	4.615
Cc1c(C(=O)NC2=NCCS2)cnn1-c1ccc(Br)cc1	11.96	0.2758	2.97
O=C(C1CCOC1)N1CCC2(CCN(Cc3nccs3)C2)CC1 (configuration not stated)	13.76	3.741	15.97
Cc1cccc(N2CCN(S(=O)(=O)CCN)CC2)c1	3.306	-1.1	-1.02
Cc1noc2nc(C3CC3)c(Cl)c(C(=O)O)c12	9.89	-4.21	10.89
COCCC1CCCCN1Cc1nc(C2CC2)no1 (configuration not stated)	0	3.608	6.383
Cc1nc(C)c(CNC(=O)N2CCN(c3ccc(Cl)cn3)CC2)s1	17.12	4.775	5
Cc1nc(C)c(C(=O)N2Cc3ccccc3OCC2Cn2ccnc2)o1 (configuration not stated)	8.571	-0.4275	6.513
COCCCNC(=O)c1nnsc1-c1ccccc1	13.58	9.194	1.339
CN(Cc1ccccc1F)C(=O)Cn1cc(NC(=O)C(C)(C)C)cn1	-8.108	0.4079	5
CC(C)CCn1cc(C(C(=O)O)N2CCC(c3ccncc3)CC2)cn1 (configuration not stated)	6.993	-2.375	10.45
CN(CC(=O)N1CCC(Oc2ccccc2)CC1)c1cnccn1	18.46	4.833	-2.682
COC(=O)c1ccc(S(=O)(=O)NCC(C)(O)c2cccs2)cc1 (configuration not stated)	14.53	1.351	1.111
CCO[C@@H]1CCN(C(=O)c2ccc[nH]2)[C@@H]1Cc1cnn(C)c1	3.65	1.561	3.825
Cc1nnc([C@@H]2CCO[C@@H]3CCN(C(=O)Cc4ccsc4)C[C@@H]32)o1	7.895	5.864	8.046
CN(Cc1ccc(F)cc1)C(=O)CN1CCCC(Cn2cncn2)C1 (configuration not stated)	19.1	6.577	9.023
Cc1ccccc1N1CCN(C(=O)Cn2ccnc2)CC1=O	2.222	-2.67	4.762
OC1(CN2CCC(Cc3ncccn3)CC2)CCCCC1	12.86	0.7639	9.579
Cc1ccc(C(=O)NCCC2CN(C3CCCC3)CCO2)c(C)c1 (configuration not stated)	17.65	0.9984	6.03
O=C(c1cccnc1)N1CCC2(CC1)CC(Oc1ccccc1)CO2 (configuration not stated)	-7.965	1.495	5.6
CCC1CN(CCNC(C)=O)CCN1CCOC (configuration not stated)	4.762	5.683	9.774
CC(C)CN(C)Cc1nc2c(cnn2C)c(=O)[nH]1	2.778	0.7563	2.639
Cn1cnc2c1C(COCc1cccnc1)N(Cc1nccs1)CC2 (configuration not stated)	11.11	1.375	9.453
CCC(=O)N1CCC2(CCN(Cc3cccc(F)c3)CC2)CC1	30.56	3.54	7.463
O=C(CNCCn1cccn1)NCC1(c2ccccc2)CCCC1	18.58	0.4335	11.37
O=C(O)C1CC2(CCN(c3nccc4ccccc34)CC2)CN1 (configuration not stated)	19.67	-2.378	-2.4
Cc1ccc(-c2cc(CNC(=O)N3CCC(N(C)C)CC3)on2)cc1	10.91	2.03	2.924
Cc1nsc(N2CCCN(C(=O)NCc3cc(C)on3)CC2)n1	17.65	10.15	1.345
CCn1ccnc1CN1CCN(CCOc2ccccc2OC)CC1	29.6	2.341	-1.901
COCC(C)NC(=O)Nc1cc(-c2ccccc2C)nn1CCO (configuration not stated)	16	5.504	-1.961
Cc1nn(Cc2ccc(F)cc2)c2[nH]nc(N)c12	6.849	4.851	0.9852
CCOCC(=O)N1C[C@@H]2COC[C@H](c3nc(C)no3)[C@@H]2C1	-5.769	6.033	-0.5348
COCC1CCCN(C(=O)c2ccc(N(C)Cc3cnn(C)c3)nc2)C1 (configuration not stated)	14.13	3.654	4.95
CN(Cc1noc2c1CCCC2)C(=O)CN1C(=O)CSc2ccccc21	7.692	-0.8888	4.598
COC(=O)N1CCCN(C(=O)NC2CCc3ccccc3C2)CC1 (configuration not stated)	7.895	1.178	6.145
COCCOCCCC(=O)N1CCC(Cc2ccccc2OC)CC1	4.386	8.839	6.897
CCOCC1c2c(ncn2C)CCN1C(=O)c1cnc(C)cn1 (configuration not stated)	15.84	3.351	2.513
CC(Cn1cccn1)NC(=O)N1CCN(Cc2ccncc2)CC1 (configuration not stated)	9.649	1.066	4.36
Cc1ccc(S(=O)(=O)NCCOc2ccc3nnc(C)n3n2)s1	26.83	0.2505	14.9
O=S(=O)(N1CCCCC1)N1CCCN(CC2CCCO2)CC1 (configuration not stated)	12.36	3.418	3.627
COC(=O)c1ccc(Cl)c(S(=O)(=O)Nc2ccc(F)c(C(N)=O)c2)c1	10	9.39	5.882
COCC1CN(C(=O)Nc2cc(Br)ccc2F)CCO1 (configuration not stated)	-0.8772	-1.103	0
CS(=O)(=O)NCCC(=O)NC1(c2ccc(F)cc2)CCCC1	11.67	6.175	9.091
Cc1ccc2[nH]c(C3CCN(C)CC3)nc2c1	5.674	-1.817	6.202
O=C(NC1CCCCC1)c1c(F)cccc1F	13.7	4.508	4.211
CC(C)(C)SCCCC(=O)N1CCC(Nc2cccnn2)CC1	16.67	0.07225	5.263
COc1ccccc1Oc1ncccc1CNC(=O)[C@@H](N)[C@@H](C)O	15.15	-1.771	7.407
O=C(c1ccccc1)N1C[C@H]2CCC[C@@]2(COCc2ccncc2)C1	22.12	0.2934	8.602
Cc1ncc2c(n1)CN(Cc1nc3ccccc3o1)CC2	33.78	6.329	0.3774
Cc1ccc(S(=O)(=O)NC(=O)CCOCC(C)C)s1	12.82	-2.611	-3.333
COCCN1CCN(CC(=O)N(C)Cc2ccsc2)CC1	1.01	-2.694	9.677
O=C(Nc1cc(C(F)(F)F)c[nH]c1=O)C1CCCCN1 (configuration not stated)	19.57	7.517	8.911
O=C(COCC1CC1)N1CCCC(n2cccn2)C1 (configuration not stated)	16.22	3.654	0.3759
CCC(CNC(=O)C1CCC1)(OC)c1ccccc1 (configuration not stated)	-3.478	7.413	1.031
Cc1cc(C2CCCN2C(=O)NCc2cccnc2)on1 (configuration not stated)	6.452	1.004	-18.39
N[C@@H]1c2ccccc2C2(CCN(c3cnc4ccccc4n3)CC2)[C@H]1O	39.76	5.048	10.98
COc1ccc(CN2CC[C@H](c3nnc(-c4ccco4)o3)C2)cc1	-20.27	-8.197	-4.348
CCN(CC)C(=O)c1cccc(Cn2nc(C)cc2C)c1	13.56	2.32	-0.4878
O=C(Cc1ccc2c(c1)OCO2)N1CCCN(c2ccccc2)CC1	11.43	7.055	0
CC(C)CCN1CCN(C(=O)c2ccc(=O)[nH]n2)CC1	12.24	3.471	9.231
CN(C)CCN1CCOCC2(C1)CN(Cc1ccco1)CCO2 (configuration not stated)	19	5.693	8.163
COc1ccc(CN2CCc3nc(C4CCCCN4C)ncc3C2)cc1 (configuration not stated)	29.93	0.7269	26.78

6 of the entries, repeated:

SMILES,LiHisRS,PfKRS1,TcHisRS
Cc1c(C(=O)NC2=NCCS2)cnn1-c1ccc(Br)cc1,11.96,0.2758,2.97
Cc1ccc2[nH]c(C3CCN(C)CC3)nc2c1,5.674,-1.817,6.202
CN(Cc1ccc(F)cc1)C(=O)CN1CCCC(Cn2cncn2)C1 (configuration not stated),19.1,6.577,9.023
O=S(=O)(N1CCCCC1)N1CCCN(CC2CCCO2)CC1 (configuration not stated),12.36,3.418,3.627
CCN(CC)C(=O)c1cccc(Cn2nc(C)cc2C)c1,13.56,2.32,-0.4878
N[C@@H]1c2ccccc2C2(CCN(c3cnc4ccccc4n3)CC2)[C@H]1O,39.76,5.048,10.98